# The list shows only some results of the screen, not a fair sample: it is rich in T/C values a quarter to a half above the control, in often repeated tests (any T/C) and in doses without a T/C. Other doses and runs of a compound stand elsewhere. T/C: endpoint of the treated group in % of that of the vehicle group. Schedules are NCI's codes, taken here to give the interval after Q, in days (D) or hours (H), and the number of doses after X. Some doses have a count of surviving animals in place of a T/C: the source holds a T/C of zero for them, seemingly a mark for toxic or unscored doses. Survivors were counted at the toxicity check, usually on the fifth day, unless a day is given; later deaths do not show. Some schedules carry Z or #; the key to these is not given.
# System: Swiss mice, Sarcoma 180 sc, mean tumor weight T/C
# Assay: NCI In Vivo Anticancer Drug Screen. Data for tumor model Sarcoma 180 (subcutaneous) in Swiss mice
# Details: T/C endpoint: mean tumor weight, higher T/C = larger tumour; for T/C: evaluated on day 8
# In short: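 Mice bearing transplanted tumors were treated with compound, and survival or tumor size was measured. Values are expressed as the treated-group measurement (T) divided by the vehicle-treated control measurement (C).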
# [1] = dose: 40.0 mg/kg/injection, schedule: Q01DX007 (ip), vehicle: carboxymethylcellulose (CMC)
# [2] = dose: 1.0 mg/kg/injection, schedule: Q01DX007 (ip), vehicle: carboxymethylcellulose (CMC)
# [3] = dose: 2.0 mg/kg/injection, schedule: Q01DX007 (ip), vehicle: carboxymethylcellulose (CMC)
# [4] = dose: 25.0 mg/kg/injection, schedule: Q01DX007 (ip), vehicle: water
# [5] = dose: 200.0 mg/kg/injection, schedule: Q01DX007 (ip), vehicle: carboxymethylcellulose (CMC)
# [6] = dose: 100.0 mg/kg/injection, schedule: Q01DX007 (ip), vehicle: carboxymethylcellulose (CMC)
# [7] = dose: 150.0 mg/kg/injection, schedule: Q01DX007 (ip), vehicle: carboxymethylcellulose (CMC)
# [8] = dose: 250.0 mg/kg/injection, schedule: Q01DX007 (ip), vehicle: carboxymethylcellulose (CMC)
structure (smiles),measurement,setting,value
Cc1cc(N(CCCl)CCCl)ccc1N=Nc1ccccc1C(=O)O,survivor count,"dose: 18.0 mg/kg/injection, schedule: Q01DX007 (ip), vehicle: carboxymethylcellulose (CMC)",4 of 7
same,survivor count,"dose: 25.0 mg/kg/injection, schedule: Q01DX007 (ip), vehicle: carboxymethylcellulose (CMC)",2 of 6
same,survivor count,"dose: 27.0 mg/kg/injection, schedule: Q01DX007 (ip), vehicle: carboxymethylcellulose (CMC)",1 of 7
same,survivor count,[1],1 of 7
NC(=O)c1cn(C2OC(CO)C(O)C2O)c2ncnc(N)c12 (stereo not given),survivor count,"dose: 0.25 mg/kg/injection, schedule: Q01DX007 (ip), vehicle: carboxymethylcellulose (CMC)",3 of 6
same,survivor count,[2],3 of 6
same,survivor count,[3],0 of 6
CC1CN(C(=O)CCl)c2ccccc2N1C(=O)CCl (stereo not given),T/C,[2],132 % of control
same,T/C,"dose: 8.0 mg/kg/injection, schedule: Q01DX007 (ip), vehicle: carboxymethylcellulose (CMC)",125 % of control
O=C(Nc1ccc(C2=NCCCN2)cc1)c1ccc(C(=O)Nc2ccc(C3=NCCCN3)cc2)cc1,survivor count,"dose: 3.1 mg/kg/injection, schedule: Q01DX007 (ip), vehicle: water",0 of 6
same,T/C,"dose: 4.0 mg/kg/injection, schedule: Q01DX007 (ip), vehicle: carboxymethylcellulose (CMC)",149 % of control
same,survivor count,"dose: 4.0 mg/kg/injection, schedule: Q01DX007 (ip), vehicle: water",1 of 6
same,survivor count,"dose: 6.3 mg/kg/injection, schedule: Q01DX007 (ip), vehicle: water",0 of 6
same,survivor count,"dose: 8.0 mg/kg/injection, schedule: Q01DX007 (ip), vehicle: water",1 of 6
same,survivor count,"dose: 12.5 mg/kg/injection, schedule: Q01DX007 (ip), vehicle: water",0 of 6
same,survivor count,"dose: 16.0 mg/kg/injection, schedule: Q01DX007 (ip), vehicle: water",0 of 6
same,survivor count,[4],0 of 6
CN1CCCC1c1cccnc1 (stereo not given),T/C,[3],137 % of control
same,survivor count,"dose: 10.0 mg/kg/injection, schedule: Q01DX007 (ip), vehicle: carboxymethylcellulose (CMC)",0 of 6
same,survivor count,"dose: 20.0 mg/kg/injection, schedule: Q01DX007 (ip), vehicle: carboxymethylcellulose (CMC)",0 of 6
same,survivor count,[1],0 of 6
O=C(Nc1ccc(NC2=NCCN2)cc1)c1ccc(C(=O)Nc2ccc(NC3=NCCN3)cc2)cc1,survivor count,"dose: 32.0 mg/kg/injection, schedule: Q01DX007 (ip), vehicle: saline",3 of 6
same,survivor count,"dose: 64.0 mg/kg/injection, schedule: Q01DX007 (ip), vehicle: saline",0 of 6
same,survivor count,"dose: 128.0 mg/kg/injection, schedule: Q01DX007 (ip), vehicle: saline",0 of 6
Cn1cc(NC(=O)c2cc(NC(=O)c3cc(NC=O)cn3C)cn2C)cc1C(=O)NCCC(=N)N,survivor count,"dose: 80.0 mg/kg/injection, schedule: Q01DX007 (sc), vehicle: water",3 of 6
same,survivor count,"dose: 100.0 mg/kg/injection, schedule: Q01DX007 (sc), vehicle: water",1 of 6
CCCCOCN1CCCCC1,survivor count,[5],1 of 6
CO/[N+]([O-])=C\C(=O)N/C=C/C(=O)O,survivor count,[6],0 of 6
same,survivor count,[5],0 of 6
same,survivor count,"dose: 400.0 mg/kg/injection, schedule: Q01DX007 (ip), vehicle: carboxymethylcellulose (CMC)",0 of 6
CCOC(=O)C1=C(C)NC(C)=C(C(=O)OCC)C1C,survivor count,"dose: 12.5 mg/kg/injection, schedule: Q01DX007 (ip), vehicle: other",1 of 7
same,survivor count,"dose: 31.2 mg/kg/injection, schedule: Q01DX007 (ip), vehicle: other",2 of 6
same,survivor count,"dose: 62.5 mg/kg/injection, schedule: Q01DX007 (ip), vehicle: other",3 of 6
COc1ccc(-c2ccc(OC)c(OC)c2OC)c(N)c1,survivor count,"dose: 875.0 mg/kg/injection, schedule: Q01DX007 (ip), vehicle: methylcellulose (MC)",2 of 6
same,survivor count,"dose: 1000.0 mg/kg/injection, schedule: Q01DX007 (ip), vehicle: methylcellulose (MC)",1 of 6
C/C=C(/C)C(=O)O[C@H]1CCN2CC=C(COC(=O)[C@@](O)([C@H](C)OC)C(C)(C)O)[C@H]12,survivor count,"dose: 44.0 mg/kg/injection, schedule: Q01DX007 (ip), vehicle: carboxymethylcellulose (CMC)",3 of 6
same,survivor count,"dose: 66.0 mg/kg/injection, schedule: Q01DX007 (ip), vehicle: carboxymethylcellulose (CMC)",0 of 6
same,survivor count,[6],0 of 6
same,survivor count,[7],0 of 6
CN(C)C1=C(Cl)C(=O)C(=O)c2cccnc21,survivor count,[4],1 of 6
same,survivor count,"dose: 50.0 mg/kg/injection, schedule: Q01DX007 (ip), vehicle: water",1 of 6
CCCCN(C)/N=N/c1nc[nH]c1C(N)=O,survivor count,[8],0 of 6
CC(=O)OCC(=O)[C@@]1(O)CC[C@H]2[C@@H]3C=C(C)C4=CC(=O)CC[C@]4(C)[C@H]3[C@@H](O)C[C@@]21C,survivor count,"dose: 400.0 mg/kg/injection, schedule: Q01DX007 (sc), vehicle: steroid suspending solution",2 of 7
O=C1CCCCC1C(=O)C(F)(F)F (stereo not given),survivor count,"dose: 27.75 mg/kg/injection, schedule: Q#A X014 (ip), vehicle: methylcellulose (MC)",2 of 6
same,survivor count,"dose: 41.65 mg/kg/injection, schedule: Q#A X014 (ip), vehicle: methylcellulose (MC)",3 of 6
same,survivor count,"dose: 62.5 mg/kg/injection, schedule: Q#A X014 (ip), vehicle: methylcellulose (MC)",3 of 6
same,survivor count,"dose: 249.0 mg/kg/injection, schedule: Q03DX003 (ip), vehicle: saline",3 of 7
same,survivor count,"dose: 374.0 mg/kg/injection, schedule: Q02DX004 (ip), vehicle: saline",4 of 7
same,survivor count,"dose: 375.0 mg/kg/injection, schedule: Q03DX003 (ip), vehicle: saline",3 of 7
same,survivor count,"dose: 800.0 mg/kg/injection, schedule: Q03DX003 (ip), vehicle: carboxymethylcellulose (CMC)",1 of 6
NNc1nncc2ccccc12,survivor count,[7],0 of 7
same,survivor count,"dose: 300.0 mg/kg/injection, schedule: Q01DX007 (ip), vehicle: carboxymethylcellulose (CMC)",0 of 7
CN1CCc2cc3c(cc2C(=O)Cc2ccc4c(c2C1)OCO4)OCO3,survivor count,"dose: 125.0 mg/kg/injection, schedule: Q01DX007 (ip), vehicle: carboxymethylcellulose (CMC)",1 of 6
same,survivor count,[8],0 of 6
same,survivor count,"dose: 500.0 mg/kg/injection, schedule: Q01DX007 (ip), vehicle: carboxymethylcellulose (CMC)",0 of 6
Cc1n[nH]c(=O)[nH]c1=O,survivor count,"dose: 1125.0 mg/kg/injection, schedule: Q01DX007 (ip), vehicle: other",1 of 6
same,survivor count,"dose: 1687.0 mg/kg/injection, schedule: Q01DX007 (ip), vehicle: other",0 of 6
Nc1nc(SC2CCCCC2)c2[nH]cnc2n1,survivor count,"dose: 480.0 mg/kg/injection, schedule: Q01DX007 (ip), vehicle: carboxymethylcellulose (CMC)",3 of 6
CCCCCCCCCCCCCCCCNc1cccc2ccccc12,survivor count,"dose: 375.0 mg/kg/injection, schedule: Q#A X014 (ip), vehicle: methylcellulose (MC)",1 of 6
COc1cc(C(=O)CC2CCCCN2)ccc1O (stereo not given),survivor count,"dose: 500.0 mg/kg/injection, schedule: Q01DX007 (ip), vehicle: saline",0 of 6
O=c1cccc2n1CC1CNC[C@H]2C1,survivor count,"dose: 12.5 mg/kg/injection, schedule: Q01DX007 (ip), vehicle: saline",0 of 6
same,survivor count,"dose: 25.0 mg/kg/injection, schedule: Q01DX007 (ip), vehicle: saline",0 of 6
COc1ccc2c(=O)oc3c(OC)cc(CCN(C)C)c4c(=O)oc1c2c34,survivor count,"dose: 100.0 mg/kg/injection, schedule: Q01DX007 (ip), vehicle: water",0 of 6
same,survivor count,"dose: 200.0 mg/kg/injection, schedule: Q01DX007 (ip), vehicle: water",0 of 6
same,survivor count,"dose: 400.0 mg/kg/injection, schedule: Q01DX007 (ip), vehicle: water",0 of 6
